Measured values as given in paper PMC11620517, “Novel hydrazone compounds with broad-spectrum antiplasmodial activity and synergistic interactions with antimalarial drugs” (Antimicrobial Agents and Chemotherapy, 2024).

Tested on: HepG2 cells
Assay: In vitro toxicity assessment in HepG2 cells

SMILES | SI (relative to WR288510-3)
O=C(N/N=C/c1cc(Br)ccc1O)/C(=C/C=C/c1ccccc1)NC(=O)c1ccccc1 [CB-50] | >100-fold
O=C(NN=Cc1ccccc1O)c1cc(-c2ccccc2)nc2ccccc12 [CB-53] | >100-fold
COc1cccc(/C=N/NC(=O)c2nc(-c3ccccc3)cc(-c3ccccc3)n2)c1O [CB-41] | >100-fold
COc1cccc(/C=N/NC(=O)c2cc(-c3ccccc3)nc3ccccc23)c1O [CB-58] | >100-fold
O=C(N/N=C/c1c(O)ccc2ccccc12)c1cc([N+](=O)[O-])cc([N+](=O)[O-])c1 [CB-61] | >100-fold
O=C(Nc1cc(Cl)ccc1O)c1cc2nc(-c3ccccc3)cc(-c3ccccc3)n2n1 [CB-59] | >100-fold
